Source: the supplement of paper PMC8728848
Some of the results follow.

Columns and labels:
Assay in all cases: glycan array binding signal (z-score within array); higher = stronger binding
Conditions in all cases: glycan notation: IUPAC condensed, linker removed
Neu5Ac(a2-8)Neu5Ac = molecular target: Neu5Ac(a2-8)Neu5Ac
How it was run: (§1)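 Negative Z-scores can be read as non-binding. The Z-score is calculated within each array and then averaged across arrays of one protein sequence at different concentrations or buffers and across linkers. Arrays, 3228 in all, were curated from the Consortium for Functional Glycomics database and kept only where the protein sequence was available.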

[1] = molecular target: Neu5Ac(a2-8)Neu5Ac(a2-3)Gal(b1-3)GalNAc(b1-4)[Neu5Ac(a2-3)]Gal(b1-4)Glc
How it was run: as §1

[2] = molecular target: Neu5Ac(a2-8)Neu5Ac(a2-3)Gal(b1-3)GalNAc(b1-4)[Neu5Ac(a2-8)Neu5Ac(a2-3)]Gal(b1-4)Glc
How it was run: as §1

[3] = molecular target: Neu5Ac(a2-8)Neu5Ac(a2-3)Gal(b1-4)Glc
How it was run: as §1

[4] = molecular target: Neu5Ac(a2-8)Neu5Ac(a2-3)Gal(b1-4)GlcNAc
How it was run: as §1

[5] = molecular target: Neu5Ac(a2-8)Neu5Ac(a2-3)[Gal(b1-3)GalNAc(b1-4)]Gal(b1-4)Glc
How it was run: as §1

[6] = molecular target: Neu5Ac(a2-8)Neu5Ac(a2-3)[GalNAc(b1-4)]Gal(b1-4)Glc
How it was run: as §1

[7] = molecular target: Neu5Ac(a2-8)Neu5Ac(a2-8)Neu5Ac
How it was run: as §1

[8] = molecular target: Neu5Ac(a2-8)Neu5Ac(a2-8)Neu5Ac(a2-3)Gal(b1-4)Glc
How it was run: as §1

[9] = molecular target: Neu5Ac(a2-8)Neu5Ac(a2-8)Neu5Ac(a2-3)[Gal(b1-3)GalNAc(b1-4)]Gal(b1-4)Glc
How it was run: as §1

[10] = molecular target: Neu5Ac(a2-8)Neu5Ac(a2-8)Neu5Ac(a2-3)[GalNAc(b1-4)]Gal(b1-4)Glc
How it was run: as §1

[11] = molecular target: Neu5Ac(a2-8)Neu5Ac(a2-8)Neu5Ac(a2-8)Neu5Ac(a2-3)[GalNAc(b1-4)]Gal(b1-4)Glc
How it was run: as §1

[12] = molecular target: Neu5Ac(a2-8)Neu5Gc(a2-3)Gal(b1-4)GlcNAc
How it was run: as §1

[13] = molecular target: Neu5Ac(b2-6)Gal(b1-4)GlcNAc
How it was run: as §1

Neu5Ac(b2-6)GalNAc = molecular target: Neu5Ac(b2-6)GalNAc
How it was run: as §1

[14] = molecular target: Neu5Ac9Ac(a2-3)Gal(b1-3)GlcNAc
How it was run: as §1

[15] = molecular target: Neu5Ac9Ac(a2-3)Gal(b1-4)GlcNAc
How it was run: as §1

[16] = molecular target: Neu5Ac9Ac(a2-6)Gal(b1-4)GlcNAc
How it was run: as §1

[17] = molecular target: Neu5Gc(a2-3)Gal(b1-3)GlcNAc
How it was run: as §1

[18] = molecular target: Neu5Gc(a2-3)Gal(b1-3)[Fuc(a1-4)]GlcNAc
How it was run: as §1

Neu5Gc(a2-3)Gal(b1-4)Glc = molecular target: Neu5Gc(a2-3)Gal(b1-4)Glc
How it was run: as §1

[19] = molecular target: Neu5Gc(a2-3)Gal(b1-4)GlcNAc
How it was run: as §1

[20] = molecular target: Neu5Gc(a2-3)Gal(b1-4)GlcNAc(b1-3)Gal(b1-4)GlcNAc(b1-2)Man(a1-3)[Neu5Gc(a2-3)Gal(b1-4)GlcNAc(b1-3)Gal(b1-4)GlcNAc(b1-2)Man(a1-6)]Man(b1-4)GlcNAc(b1-4)GlcNAc
How it was run: as §1

[21] = molecular target: Neu5Gc(a2-3)Gal(b1-4)[Fuc(a1-3)]GlcNAc
How it was run: as §1

[22] = molecular target: Neu5Gc(a2-6)Gal(b1-4)GlcNAc
How it was run: as §1

Neu5Gc(a2-6)GalNAc = molecular target: Neu5Gc(a2-6)GalNAc
How it was run: as §1

[23] = molecular target: Neu5Gc(a2-8)Neu5Ac(a2-3)Gal(b1-4)GlcNAc
How it was run: as §1

[24] = molecular target: Neu5Gc(a2-8)Neu5Gc(a2-3)Gal(b1-4)GlcNAc
How it was run: as §1

[25] = molecular target: Neu5Gc(a2-8)Neu5Gc(a2-3)Gal(b1-4)GlcNAc(b1-3)Gal(b1-4)GlcNAc
How it was run: as §1

[26] = molecular target: Neu5Gc(a2-8)Neu5Gc(a2-6)Gal(b1-4)GlcNAc
How it was run: as §1

[27] = molecular target: Neu5Gc(b2-6)Gal(b1-4)GlcNAc
How it was run: as §1

B1: Pwp6 (Candida glabrata) (protein)
chain: MGSSHHHHHHSSGLVPRGSHMASANLPKLTNICQIPDNVKKTSGFKGEIRRIGLFPPGGDYTYLLKFPSTGSTASDTISLTTKPQLSTSGWFPSLFGHTYFIKADLLVYMVAYFVPTETGEYTFKLVNSDDAAVMYVGNPSAFPCGSIDTWPEPRKEDINVCDKISASTKLYMEKGLAYPVRLVWYNGGGDGQFNAQFIDPSGTTHTDWNGYVWQYDACTDCDYK
Neu5Ac(a2-8)Neu5Ac
  glycan array binding signal (z-score): -0.112
[1]
  glycan array binding signal (z-score): -0.035
[2]
  glycan array binding signal (z-score): -0.624
[3]
  glycan array binding signal (z-score): -0.511
[4]
  glycan array binding signal (z-score): -0.086
[5]
  glycan array binding signal (z-score): -0.487
[6]
  glycan array binding signal (z-score): 0.066
[7]
  glycan array binding signal (z-score): -0.376
[8]
  glycan array binding signal (z-score): -0.193
[9]
  glycan array binding signal (z-score): 0.004
[10]
  glycan array binding signal (z-score): 0.494
[11]
  glycan array binding signal (z-score): -0.199
[12]
  glycan array binding signal (z-score): -0.452
[13]
  glycan array binding signal (z-score): -0.419
Neu5Ac(b2-6)GalNAc
  glycan array binding signal (z-score): -0.624
[14]
  glycan array binding signal (z-score): -0.646
[15]
  glycan array binding signal (z-score): -0.816
[16]
  glycan array binding signal (z-score): -0.933
[17]
  glycan array binding signal (z-score): -0.614
[18]
  glycan array binding signal (z-score): -0.461
Neu5Gc(a2-3)Gal(b1-4)Glc
  glycan array binding signal (z-score): -0.283
[19]
  glycan array binding signal (z-score): -0.327
[20]
  glycan array binding signal (z-score): 1.29
[21]
  glycan array binding signal (z-score): -0.654
[22]
  glycan array binding signal (z-score): -0.58
Neu5Gc(a2-6)GalNAc
  glycan array binding signal (z-score): -0.745
[23]
  glycan array binding signal (z-score): -0.622
[24]
  glycan array binding signal (z-score): -0.427
[25]
  glycan array binding signal (z-score): -0.402
[26]
  glycan array binding signal (z-score): -0.59
[27]
  glycan array binding signal (z-score): -0.499
